This is one part of the list. The calls rarely recur for the same compound in another form.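 Kinases were expressed as nanoluciferase fusions in K562 cells and luminescence was read every 4 h between 2 and 18 h as percent of control, DMSO set to 100% and a positive control to 0%. A time point counts as decreased when the signal drops significantly (2 sigma). The hit call is the authors' own, does not follow from the count of time points alone, and its rule is not shown.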
Assays:
Settings in all cases: K562; 2-18 h
RET = RET (UniProt P07949); assay: kinase-Nluc reporter destabilization hit call (1 = scored as downregulated) (binary); higher = compound decreases kinase abundance
[1] = target: RET_M918T (clone: RET_mut) (UniProt P07949); assay: as above
RIOK1 = RIOK1 (UniProt Q9BRS2); assay: as above
RIPK1 = RIPK1 (UniProt Q13546); assay: as above
RIPK2 = RIPK2 (UniProt O43353); assay: as above
ROR2 = ROR2 (UniProt Q01974); assay: as above
RPS6KA1 = RPS6KA1 (UniProt Q15418); assay: as above
SPHK1 = SPHK1 (UniProt Q9NYA1); assay: as above
SRC = SRC (UniProt P12931); assay: as above
STK24 = STK24 (UniProt Q9Y6E0); assay: as above
STK38 = STK38 (UniProt Q15208); assay: as above
SYK = SYK (UniProt P43405); assay: as above
TEC = TEC (UniProt P42680); assay: as above
TYK2 = TYK2 (UniProt P29597); assay: as above
ULK3 = ULK3 (UniProt Q6PHR2); assay: as above
YES1 = YES1 (UniProt P07947); assay: as above
ZAK = ZAK (UniProt Q9NYL2); assay: as above
ZAP70 = ZAP70 (UniProt P43403); assay: as above
ABL1 = ABL1 (UniProt P00519); assay: number of time points (of 5) at which kinase-Nluc abundance scored as decreased, DMSO-normalised (count); higher = more persistent destabilization
AKT1 = AKT1 (UniProt P31749); assay: as above

Sequences of proteins named here, by UniProt entry; tags and fusion partners are left off. A change or cut given only in a name is not applied to a line headed by its entry.
UniProt Q9BRS2: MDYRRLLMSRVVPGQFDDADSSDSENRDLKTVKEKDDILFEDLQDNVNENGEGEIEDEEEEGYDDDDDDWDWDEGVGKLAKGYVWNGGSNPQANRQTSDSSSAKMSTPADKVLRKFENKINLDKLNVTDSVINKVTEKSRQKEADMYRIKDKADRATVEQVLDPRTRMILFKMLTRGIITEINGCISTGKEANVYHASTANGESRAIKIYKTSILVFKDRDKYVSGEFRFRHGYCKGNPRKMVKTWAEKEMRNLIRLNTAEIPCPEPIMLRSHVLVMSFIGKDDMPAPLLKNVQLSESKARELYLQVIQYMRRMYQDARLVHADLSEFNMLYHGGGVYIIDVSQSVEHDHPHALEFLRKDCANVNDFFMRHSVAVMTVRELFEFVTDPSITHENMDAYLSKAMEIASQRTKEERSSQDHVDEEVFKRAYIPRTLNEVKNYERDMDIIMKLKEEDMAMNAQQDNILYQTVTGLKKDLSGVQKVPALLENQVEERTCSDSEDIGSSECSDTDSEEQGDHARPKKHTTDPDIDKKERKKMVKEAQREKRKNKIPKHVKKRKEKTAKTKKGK
UniProt Q01974, whole entry: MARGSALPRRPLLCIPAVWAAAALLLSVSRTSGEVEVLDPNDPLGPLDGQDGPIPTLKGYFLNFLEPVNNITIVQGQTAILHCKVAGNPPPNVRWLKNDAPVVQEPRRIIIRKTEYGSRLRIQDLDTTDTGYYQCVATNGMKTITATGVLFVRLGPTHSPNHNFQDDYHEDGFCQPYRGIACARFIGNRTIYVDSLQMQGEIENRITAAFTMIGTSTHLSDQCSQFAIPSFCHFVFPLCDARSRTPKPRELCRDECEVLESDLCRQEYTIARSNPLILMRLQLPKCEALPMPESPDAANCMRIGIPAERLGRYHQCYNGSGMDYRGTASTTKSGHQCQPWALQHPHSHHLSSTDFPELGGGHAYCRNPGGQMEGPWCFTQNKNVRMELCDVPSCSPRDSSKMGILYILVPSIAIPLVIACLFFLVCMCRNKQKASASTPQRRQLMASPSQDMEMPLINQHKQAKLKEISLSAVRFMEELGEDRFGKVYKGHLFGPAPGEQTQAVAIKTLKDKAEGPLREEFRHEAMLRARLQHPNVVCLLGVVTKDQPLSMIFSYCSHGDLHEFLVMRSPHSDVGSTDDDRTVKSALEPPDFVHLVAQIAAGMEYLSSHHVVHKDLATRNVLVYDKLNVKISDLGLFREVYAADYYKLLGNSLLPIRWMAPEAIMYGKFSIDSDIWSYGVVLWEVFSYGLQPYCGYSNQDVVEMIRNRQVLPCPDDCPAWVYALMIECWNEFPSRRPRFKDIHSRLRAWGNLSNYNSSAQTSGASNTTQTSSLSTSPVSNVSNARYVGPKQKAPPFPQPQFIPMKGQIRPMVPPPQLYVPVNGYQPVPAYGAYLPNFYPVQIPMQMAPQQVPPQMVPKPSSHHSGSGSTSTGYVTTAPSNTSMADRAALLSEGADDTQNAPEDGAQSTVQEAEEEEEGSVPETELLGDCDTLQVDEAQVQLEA
UniProt Q15418, whole entry: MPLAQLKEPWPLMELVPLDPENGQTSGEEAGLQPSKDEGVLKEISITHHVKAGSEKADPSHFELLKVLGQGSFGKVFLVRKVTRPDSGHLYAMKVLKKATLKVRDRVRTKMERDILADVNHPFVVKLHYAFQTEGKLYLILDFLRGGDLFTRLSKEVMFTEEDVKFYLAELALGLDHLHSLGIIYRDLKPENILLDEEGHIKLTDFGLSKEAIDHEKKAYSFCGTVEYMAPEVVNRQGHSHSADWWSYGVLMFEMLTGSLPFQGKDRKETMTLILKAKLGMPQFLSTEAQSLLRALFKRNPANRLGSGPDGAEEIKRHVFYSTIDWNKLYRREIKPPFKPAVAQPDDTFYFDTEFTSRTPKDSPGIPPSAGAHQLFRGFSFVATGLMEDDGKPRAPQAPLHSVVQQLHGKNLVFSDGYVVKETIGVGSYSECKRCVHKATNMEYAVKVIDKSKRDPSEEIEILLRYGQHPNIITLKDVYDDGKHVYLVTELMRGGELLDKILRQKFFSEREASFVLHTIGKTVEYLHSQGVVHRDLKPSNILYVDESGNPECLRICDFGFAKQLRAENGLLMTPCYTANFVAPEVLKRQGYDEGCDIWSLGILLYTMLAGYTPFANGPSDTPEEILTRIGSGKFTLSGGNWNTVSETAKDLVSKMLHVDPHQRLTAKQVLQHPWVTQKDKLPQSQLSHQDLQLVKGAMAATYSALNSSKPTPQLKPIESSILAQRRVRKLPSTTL
UniProt Q9NYA1, whole entry: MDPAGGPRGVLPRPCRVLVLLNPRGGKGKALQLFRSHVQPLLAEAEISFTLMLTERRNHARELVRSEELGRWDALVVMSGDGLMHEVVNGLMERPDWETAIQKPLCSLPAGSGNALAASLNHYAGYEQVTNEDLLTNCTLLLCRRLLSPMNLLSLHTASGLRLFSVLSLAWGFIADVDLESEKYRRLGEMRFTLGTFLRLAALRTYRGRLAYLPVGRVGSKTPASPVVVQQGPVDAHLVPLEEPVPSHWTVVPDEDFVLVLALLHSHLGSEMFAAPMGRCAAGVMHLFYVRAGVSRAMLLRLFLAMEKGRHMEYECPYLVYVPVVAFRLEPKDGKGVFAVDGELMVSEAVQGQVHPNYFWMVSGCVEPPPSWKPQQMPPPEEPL
UniProt Q9Y6E0: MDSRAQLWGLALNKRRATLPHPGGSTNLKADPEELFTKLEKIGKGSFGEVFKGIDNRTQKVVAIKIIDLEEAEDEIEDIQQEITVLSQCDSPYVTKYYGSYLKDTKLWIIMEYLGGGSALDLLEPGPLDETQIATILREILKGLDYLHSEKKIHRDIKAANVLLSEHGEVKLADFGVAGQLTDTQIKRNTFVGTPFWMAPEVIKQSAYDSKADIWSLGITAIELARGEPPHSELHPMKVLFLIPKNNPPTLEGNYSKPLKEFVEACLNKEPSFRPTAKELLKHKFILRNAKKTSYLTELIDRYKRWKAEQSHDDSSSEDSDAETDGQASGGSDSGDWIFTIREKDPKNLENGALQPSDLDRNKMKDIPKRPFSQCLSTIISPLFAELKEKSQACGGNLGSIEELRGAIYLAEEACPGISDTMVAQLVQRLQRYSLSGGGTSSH
UniProt P42680: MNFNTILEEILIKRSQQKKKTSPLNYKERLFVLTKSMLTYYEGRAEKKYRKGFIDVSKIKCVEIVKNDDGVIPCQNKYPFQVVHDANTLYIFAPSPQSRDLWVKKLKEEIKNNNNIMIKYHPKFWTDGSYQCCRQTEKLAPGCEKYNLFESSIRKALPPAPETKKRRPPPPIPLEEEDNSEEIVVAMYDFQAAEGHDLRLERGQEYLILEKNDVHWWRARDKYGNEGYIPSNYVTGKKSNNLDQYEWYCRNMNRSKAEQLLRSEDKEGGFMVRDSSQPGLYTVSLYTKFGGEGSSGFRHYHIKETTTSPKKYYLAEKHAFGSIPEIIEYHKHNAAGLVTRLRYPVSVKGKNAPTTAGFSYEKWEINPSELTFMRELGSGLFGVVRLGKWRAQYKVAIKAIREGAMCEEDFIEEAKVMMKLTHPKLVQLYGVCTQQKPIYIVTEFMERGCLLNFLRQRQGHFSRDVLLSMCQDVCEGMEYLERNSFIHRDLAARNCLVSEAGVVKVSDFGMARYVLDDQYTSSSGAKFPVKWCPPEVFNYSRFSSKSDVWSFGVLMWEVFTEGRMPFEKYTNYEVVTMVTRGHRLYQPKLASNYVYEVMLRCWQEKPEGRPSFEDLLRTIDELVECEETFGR
UniProt Q6PHR2: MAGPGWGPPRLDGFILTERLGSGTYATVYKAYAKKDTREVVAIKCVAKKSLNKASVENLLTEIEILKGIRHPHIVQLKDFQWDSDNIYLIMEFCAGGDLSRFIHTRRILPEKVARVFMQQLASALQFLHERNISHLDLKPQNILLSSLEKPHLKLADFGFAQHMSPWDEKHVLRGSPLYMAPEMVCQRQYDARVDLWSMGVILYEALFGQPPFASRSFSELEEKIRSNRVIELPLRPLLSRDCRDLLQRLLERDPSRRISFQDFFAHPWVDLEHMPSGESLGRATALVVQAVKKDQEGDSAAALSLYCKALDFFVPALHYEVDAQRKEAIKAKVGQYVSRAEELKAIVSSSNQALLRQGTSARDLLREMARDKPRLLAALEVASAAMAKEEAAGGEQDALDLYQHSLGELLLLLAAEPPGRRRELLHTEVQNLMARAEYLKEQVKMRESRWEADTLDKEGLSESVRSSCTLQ
UniProt P43403: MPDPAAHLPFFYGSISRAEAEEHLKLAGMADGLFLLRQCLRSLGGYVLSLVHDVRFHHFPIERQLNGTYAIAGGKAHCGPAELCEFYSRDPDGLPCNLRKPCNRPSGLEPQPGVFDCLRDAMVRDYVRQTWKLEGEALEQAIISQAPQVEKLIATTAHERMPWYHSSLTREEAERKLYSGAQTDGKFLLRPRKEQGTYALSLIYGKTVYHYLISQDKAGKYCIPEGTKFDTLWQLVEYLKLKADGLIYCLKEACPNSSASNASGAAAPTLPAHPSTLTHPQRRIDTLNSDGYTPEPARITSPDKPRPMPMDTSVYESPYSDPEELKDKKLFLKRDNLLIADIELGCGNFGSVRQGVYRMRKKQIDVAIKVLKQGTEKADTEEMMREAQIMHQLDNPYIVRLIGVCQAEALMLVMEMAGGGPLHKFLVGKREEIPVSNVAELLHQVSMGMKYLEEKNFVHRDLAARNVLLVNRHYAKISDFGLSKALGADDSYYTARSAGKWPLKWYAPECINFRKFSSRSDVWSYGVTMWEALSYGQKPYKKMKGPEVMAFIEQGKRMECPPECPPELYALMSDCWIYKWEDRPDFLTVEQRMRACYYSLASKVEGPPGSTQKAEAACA
UniProt P00519, whole entry: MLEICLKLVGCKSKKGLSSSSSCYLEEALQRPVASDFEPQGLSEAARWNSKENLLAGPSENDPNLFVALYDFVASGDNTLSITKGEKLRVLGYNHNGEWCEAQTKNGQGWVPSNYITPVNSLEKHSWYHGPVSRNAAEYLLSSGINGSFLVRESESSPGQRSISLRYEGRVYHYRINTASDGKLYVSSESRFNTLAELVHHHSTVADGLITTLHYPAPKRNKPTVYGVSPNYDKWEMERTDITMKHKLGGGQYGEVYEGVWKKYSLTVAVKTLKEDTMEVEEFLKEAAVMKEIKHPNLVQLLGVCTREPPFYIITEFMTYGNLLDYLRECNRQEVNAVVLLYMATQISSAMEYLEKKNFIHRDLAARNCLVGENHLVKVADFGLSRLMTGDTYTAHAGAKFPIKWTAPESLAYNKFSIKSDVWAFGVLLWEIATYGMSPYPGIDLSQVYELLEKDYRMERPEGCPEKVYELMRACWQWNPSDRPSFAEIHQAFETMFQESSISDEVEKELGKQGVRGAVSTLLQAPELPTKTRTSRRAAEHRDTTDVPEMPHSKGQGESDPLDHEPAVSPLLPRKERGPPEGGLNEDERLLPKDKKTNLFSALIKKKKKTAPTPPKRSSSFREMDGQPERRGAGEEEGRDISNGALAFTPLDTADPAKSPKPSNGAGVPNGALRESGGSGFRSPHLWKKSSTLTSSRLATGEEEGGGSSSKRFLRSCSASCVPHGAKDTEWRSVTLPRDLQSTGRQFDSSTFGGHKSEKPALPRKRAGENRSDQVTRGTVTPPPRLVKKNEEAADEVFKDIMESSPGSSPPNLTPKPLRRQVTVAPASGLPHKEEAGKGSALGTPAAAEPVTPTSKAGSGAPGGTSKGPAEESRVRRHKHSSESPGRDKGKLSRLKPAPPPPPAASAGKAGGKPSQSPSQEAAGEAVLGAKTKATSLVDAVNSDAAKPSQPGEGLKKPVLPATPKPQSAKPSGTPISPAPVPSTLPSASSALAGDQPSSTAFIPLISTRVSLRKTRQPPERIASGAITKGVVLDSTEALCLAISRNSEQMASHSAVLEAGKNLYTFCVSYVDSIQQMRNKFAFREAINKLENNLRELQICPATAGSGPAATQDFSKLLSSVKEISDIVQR
UniProt P31749: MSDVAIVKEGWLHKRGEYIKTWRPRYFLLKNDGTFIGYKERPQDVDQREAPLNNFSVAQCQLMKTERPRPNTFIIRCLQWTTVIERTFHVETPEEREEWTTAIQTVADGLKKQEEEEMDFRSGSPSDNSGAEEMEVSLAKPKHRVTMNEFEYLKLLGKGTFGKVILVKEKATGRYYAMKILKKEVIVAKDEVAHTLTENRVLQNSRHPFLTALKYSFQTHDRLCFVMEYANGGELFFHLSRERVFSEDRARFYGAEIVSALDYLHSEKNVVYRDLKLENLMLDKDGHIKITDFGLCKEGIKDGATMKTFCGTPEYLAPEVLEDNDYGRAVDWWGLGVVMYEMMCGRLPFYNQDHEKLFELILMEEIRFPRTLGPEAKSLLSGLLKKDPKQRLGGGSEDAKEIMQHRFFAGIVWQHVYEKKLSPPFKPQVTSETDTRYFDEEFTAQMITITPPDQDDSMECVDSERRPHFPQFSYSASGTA

With CCOc1cc(C(=O)N2CCC(N3CCN(C)CC3)CC2)ccc1Nc1ncc2c(n1)N(S(C)(=O)=O)c1ccccc1C(=O)N2C (10 µM) the “kinase-Nluc reporter destabilization hit call” value (RET) was inactive: 0, the “kinase-Nluc reporter destabilization hit call” value [1] was inactive: 0 and the “kinase-Nluc reporter destabilization hit call” value (RIOK1) was inactive: 0. The “kinase-Nluc reporter destabilization hit call” value (RIPK1) was inactive: 0, the “kinase-Nluc reporter destabilization hit call” value (RIPK2) was inactive: 0 and the “kinase-Nluc reporter destabilization hit call” value (ROR2) was inactive: 0. For the same compound, the “kinase-Nluc reporter destabilization hit call” value (RPS6KA1) was inactive: 0, the “kinase-Nluc reporter destabilization hit call” value (SPHK1) was inactive: 0 and the “kinase-Nluc reporter destabilization hit call” value (SRC) was inactive: 0. The “kinase-Nluc reporter destabilization hit call” value (STK24) was inactive: 0, the “kinase-Nluc reporter destabilization hit call” value (STK38) was inactive: 0 and the “kinase-Nluc reporter destabilization hit call” value (SYK) was inactive: 0. The “kinase-Nluc reporter destabilization hit call” value (TEC) was inactive: 0, the “kinase-Nluc reporter destabilization hit call” value (TYK2) was inactive: 0 and the “kinase-Nluc reporter destabilization hit call” value (ULK3) was inactive: 0. The “kinase-Nluc reporter destabilization hit call” value (YES1) was inactive: 0, the “kinase-Nluc reporter destabilization hit call” value (ZAK) was inactive: 0 and the “kinase-Nluc reporter destabilization hit call” value (ZAP70) was inactive: 0. For the same compound, the “number of time points” value (ABL1) was 0 and the “number of time points” value (AKT1) was 0.
CC(=O)c1cc(O)ccc1O [2,5-Dihydroxyacetophenone] (10 µM) was tested, and the “kinase-Nluc reporter destabilization hit call” value (RET) was inactive: 0, the “kinase-Nluc reporter destabilization hit call” value [1] was inactive: 0 and the “kinase-Nluc reporter destabilization hit call” value (RIOK1) was inactive: 0. The “kinase-Nluc reporter destabilization hit call” value (RIPK1) was inactive: 0, the “kinase-Nluc reporter destabilization hit call” value (RIPK2) was inactive: 0 and the “kinase-Nluc reporter destabilization hit call” value (ROR2) was inactive: 0. For the same compound, the “kinase-Nluc reporter destabilization hit call” value (RPS6KA1) was inactive: 0, the “kinase-Nluc reporter destabilization hit call” value (SPHK1) was inactive: 0 and the “kinase-Nluc reporter destabilization hit call” value (SRC) was inactive: 0. For the same compound, the “kinase-Nluc reporter destabilization hit call” value (STK24) was inactive: 0, the “kinase-Nluc reporter destabilization hit call” value (STK38) was inactive: 0 and the “kinase-Nluc reporter destabilization hit call” value (SYK) was inactive: 0. For the same compound, the “kinase-Nluc reporter destabilization hit call” value (TEC) was inactive: 0, the “kinase-Nluc reporter destabilization hit call” value (TYK2) was inactive: 0 and the “kinase-Nluc reporter destabilization hit call” value (ULK3) was inactive: 0. For the same compound, the “kinase-Nluc reporter destabilization hit call” value (YES1) was inactive: 0, the “kinase-Nluc reporter destabilization hit call” value (ZAK) was inactive: 0 and the “kinase-Nluc reporter destabilization hit call” value (ZAP70) was inactive: 0. The “number of time points” value (ABL1) was 0 and the “number of time points” value (AKT1) was 0.
With Cn1cc(-c2cn3nccc3c(-c3cnn([C@]4(CC#N)C[C@@H](C#N)C4)c3)n2)cn1 (10 µM) the “kinase-Nluc reporter destabilization hit call” value (RET) was inactive: 0, the “kinase-Nluc reporter destabilization hit call” value [1] was inactive: 0 and the “kinase-Nluc reporter destabilization hit call” value (RIOK1) was inactive: 0. For the same compound, the “kinase-Nluc reporter destabilization hit call” value (RIPK1) was inactive: 0, the “kinase-Nluc reporter destabilization hit call” value (RIPK2) was inactive: 0 and the “kinase-Nluc reporter destabilization hit call” value (ROR2) was inactive: 0. For the same compound, the “kinase-Nluc reporter destabilization hit call” value (RPS6KA1) was inactive: 0, the “kinase-Nluc reporter destabilization hit call” value (SPHK1) was inactive: 0 and the “kinase-Nluc reporter destabilization hit call” value (SRC) was inactive: 0. For the same compound, the “kinase-Nluc reporter destabilization hit call” value (STK24) was inactive: 0, the “kinase-Nluc reporter destabilization hit call” value (STK38) was inactive: 0 and the “kinase-Nluc reporter destabilization hit call” value (SYK) was inactive: 0. For the same compound, the “kinase-Nluc reporter destabilization hit call” value (TEC) was inactive: 0, the “kinase-Nluc reporter destabilization hit call” value (TYK2) was inactive: 0 and the “kinase-Nluc reporter destabilization hit call” value (ULK3) was inactive: 0. The “kinase-Nluc reporter destabilization hit call” value (YES1) was inactive: 0, the “kinase-Nluc reporter destabilization hit call” value (ZAK) was inactive: 0 and the “kinase-Nluc reporter destabilization hit call” value (ZAP70) was inactive: 0. The “number of time points” value (ABL1) was 0 and the “number of time points” value (AKT1) was 0.
For CC[C@H](C)[C@@H]1NC(=O)[C@@H]2CCCN2C(=O)[C@@H]2CCCN2C(=O)[C@@H]2CCCN2C(=O)[C@H](CC(C)C)NC(=O)CNC(=O)CNC(=O)[C@H](Cc2ccccc2)NC1=O [Heterophyllin B] (10 µM), the “kinase-Nluc reporter destabilization hit call” value (RET) was inactive: 0, the “kinase-Nluc reporter destabilization hit call” value [1] was inactive: 0 and the “kinase-Nluc reporter destabilization hit call” value (RIOK1) was inactive: 0. The “kinase-Nluc reporter destabilization hit call” value (RIPK1) was inactive: 0, the “kinase-Nluc reporter destabilization hit call” value (RIPK2) was inactive: 0 and the “kinase-Nluc reporter destabilization hit call” value (ROR2) was inactive: 0. The “kinase-Nluc reporter destabilization hit call” value (RPS6KA1) was inactive: 0, the “kinase-Nluc reporter destabilization hit call” value (SPHK1) was inactive: 0 and the “kinase-Nluc reporter destabilization hit call” value (SRC) was inactive: 0. The “kinase-Nluc reporter destabilization hit call” value (STK24) was inactive: 0, the “kinase-Nluc reporter destabilization hit call” value (STK38) was inactive: 0 and the “kinase-Nluc reporter destabilization hit call” value (SYK) was inactive: 0. The “kinase-Nluc reporter destabilization hit call” value (TEC) was inactive: 0, the “kinase-Nluc reporter destabilization hit call” value (TYK2) was inactive: 0 and the “kinase-Nluc reporter destabilization hit call” value (ULK3) was inactive: 0. For the same compound, the “kinase-Nluc reporter destabilization hit call” value (YES1) was inactive: 0, the “kinase-Nluc reporter destabilization hit call” value (ZAK) was inactive: 0 and the “kinase-Nluc reporter destabilization hit call” value (ZAP70) was inactive: 0. The “number of time points” value (ABL1) was 0 and the “number of time points” value (AKT1) was 0.

From the supplement of paper PMC12823440, “Inhibitors supercharge kinase turnover through native proteolytic circuits” (Nature, 2025)
